This is one part of the list. These are further read-outs of the screen, such as a control signal, another cell line or another target. No call is given for them. The list favours compounds with an active or inconclusive main result. Potencies come from curve fits of mixed quality, noted in brackets.
Assay: qHTS Assay for Lipid Storage Modulators in Drosophila S3 Cells;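 for cell number change: cells counted by Cell Tracker Red CMTPX staining in the red channel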
Settings: BODIPY lipid droplet fluorescence, 18-24 h; for cell number change: measured here: cell count max response, cells fed with added oleic acid
Method in brief: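 Drosophila S3 cells loaded with oleic acid (400 uM, as added) and compounds at several concentrations; lipid droplets imaged by 488-nm laser-scanning cytometry, 500–530 nm intensity and object ratio to cell channel. Percent activity normalized to 20 uM Triacsin C.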

[1] = measured here: lipid fluorescence (Fed channel) AC50, cells fed with added oleic acid
[2] = measured here: cell number channel AC50, cells fed with added oleic acid

Row | Structure (SMILES) | cell number change [%] | AC50 [1] | AC50 [2]
1 | CCCN(CC(=O)Nc1ccccc1C)C(=O)COc1c(C)cccc1C | -10.6 | 11.6 µM [rising, partial curve] | 
2 | Cc1nn(Cc2ccccc2Cl)c2sc(C(=O)Nc3nccs3)cc12 | 14.8 | 0.82 µM [rising, partial curve] | 1.16 µM [rising, partial curve]
3 | Cc1ccc(C(=O)N/N=C2\CC3CC=CC23)c(C)c1 (configuration not stated) | 77.5 |  | 16.4 µM [rising, partial curve]
4 | COc1ccc(-n2nc(C(=O)NCC(=O)N3CCCC(C)C3)c3ccccc3c2=O)cc1 (configuration not stated) | -7.66 | 29.1 µM [falling, single point] | 
5 | CCOc1ccccc1C(=O)N(C)Cc1cc2ccccc2[nH]c1=O | 65.6 | 9.2 µM [rising, partial curve] | 5.8 µM [rising, full curve]
6 | O=c1c2ccccc2nc(-c2ccc([N+](=O)[O-])cc2)n1O | 17.9 |  | 
7 | C(=C\c1ccccc1)/C=N/n1cnnc1 | 1.78 | 0.291 µM [falling, full curve, poor fit] | 
8 | CC(C)N(Cc1ccccc1)S(=O)(=O)N(C)C | -3.57 |  | 
9 | COc1ccc(NC(=O)c2ccc([N+](=O)[O-])cc2[N+](=O)[O-])c(OC)c1 |  |  | 0.411 µM [falling, partial curve, poor fit]
10 | O=C(NCC1CCN(c2ccc(S(=O)(=O)N3CCOCC3)cc2)CC1)Nc1ccccc1F | 4.17 |  | 
11 | CC1CN(Cc2cc(=O)oc3cc(O)ccc23)CC(C)O1 (configuration not stated) | 3.91 |  | 
12 | O=c1cc(-c2ccccc2)nc(SCc2ccccc2F)[nH]1 | 2.55 |  | 
13 | CCC1(C)Cc2ccccc2-c2nc(-c3ccccc3)oc(=O)c21 (configuration not stated) | 12.6 | 29.1 µM [rising, single point] | 
14 | COc1ccc(NC(=O)CC2C(=O)N(Cc3cccs3)C(=S)N2C(C)C)cc1 (configuration not stated) | 16.2 | 0.206 µM [rising, full curve] | 0.461 µM [rising, single point]
15 | CCN(CC)S(=O)(=O)c1ccc(/C=C/C(=O)OCC(=O)N(C(C)C)C(C)C)cc1 | -46.9 |  | 
16 | CCOc1ccc(CCNC(=O)CSC(=S)N2CCCC2)cc1OCC | -36.5 |  | 0.58 µM [falling, partial curve, poor fit]
17 | Cc1ccc(NC(=O)CCC(C(=O)O)N2C(=O)c3ccccc3C2=O)cc1 (configuration not stated) | 8.92 |  | 
18 | N#C/C(=C(/O)Cc1cccc2ccccc12)c1nc2ccccc2s1 | 0.542 | 6.51 µM [falling, single point] | 
19 | CCc1nc(N2CCN(c3nc(C)cc(C)n3)CC2)c2oc3ccccc3c2n1 | 24 | 0.231 µM [rising, full curve] | 
20 | CCOc1ccccc1C1C(C(=O)OC)=C(N)OC2=C1C(=O)CCC2 (configuration not stated) | 17.3 | 6.51 µM [rising, partial curve] | 6.51 µM [rising, single point]
21 | O=C(COC(=O)Cc1ccc(Cl)cc1)Nc1ccc2[nH]c(=O)[nH]c2c1 | 34.6 |  | 29.1 µM [rising, single point]

Row | Structure (SMILES) | cell number change [%] | AC50 [1] | AC50 [2]
22 | Cn1nnnc1SCC(=O)Nc1ccc(Cl)cc1Cl | -0.329 | 0.00461 µM [falling, full curve, poor fit] | 
23 | CCOC(=O)CC1C(=O)NCCN1C(=O)COc1ccc(C(C)(C)C)cc1 (configuration not stated) | 7.14 |  | 
24 | Cc1ccc(-n2nc(-c3cccs3)cc2C(=O)NCC2CCCO2)c(C)c1 (configuration not stated) |  | 6.51 µM [rising, single point] | 
25 | c1ccc(C2OCC3(CO2)COC(c2ccccc2)OC3)cc1 (configuration not stated) | -16.1 | 6.51 µM [falling, single point] | 6.51 µM [falling, single point]
26 | O=C(CC(n1cncn1)C(Cl)(Cl)Cl)c1ccc([N+](=O)[O-])cc1 (configuration not stated) | -60.3 |  | 32.6 µM [falling, single point]
27 | Cc1sc(N)c(C(=O)c2ccccc2)c1C | -28.8 | 32.6 µM [falling, single point] | 
28 | Cc1cc(C(=O)NC(C)C2CCCO2)cs1 (configuration not stated) | 4.14 | 14.6 µM [falling, single point] | 
29 | CCOC(=O)Cc1csc(NC(=O)CSc2nnnn2-c2ccc(F)cc2)n1 | -31.5 |  | 29.1 µM [falling, single point]
30 | Cc1cc(OCC(=O)OCC(=O)Nc2cccnc2Cl)ccc1Cl | -11.5 |  | 
31 | N#Cc1nc(COc2ccc(-c3ccccc3)cc2)oc1NCc1cccnc1 | -26.4 | 0.651 µM [rising, full curve] | 
32 | Cc1cc(Cl)ccc1OC(C)C(=O)NN=C1CCCCCC1 (configuration not stated) | -2.86 | 29.1 µM [rising, partial curve] | 
33 | COc1ccc(-c2csc(NS(=O)(=O)c3ccc([N+](=O)[O-])cc3)n2)cc1 | 6.02 | 0.651 µM [falling, single point] | 0.13 µM [falling, full curve, poor fit]
34 | CN(Cc1ccccc1OCCO)CC1CCCN(CCc2ccc(Cl)cc2)C1 (configuration not stated) | 6.32 | 9.2 µM [rising, partial curve] | 
35 | C=CCOc1cccc(C2/C(=C(\O)c3ccc4c(c3)OCCO4)C(=O)C(=O)N2CCN2CCOCC2)c1 (configuration not stated) | -20.6 |  | 
36 | Cc1ccc(OCC(=O)NC(=S)Nc2ccccn2)c(Br)c1 | -4.91 |  | 
37 | COc1ccc(Cl)cc1NC(=S)N(Cc1ccccc1C)CC1CCC(C(=O)O)CC1 (configuration not stated) | -9.07 | 0.58 µM [rising, partial curve] | 
38 | CN(C)/C=C/C(=O)c1ccc(S(=O)c2ccccc2)cc1 (configuration not stated) | 12.6 |  | 0.13 µM [falling, full curve, poor fit]
39 | COc1ccc(CCNS(=O)(=O)c2ccc3c(c2)CCN3C(=O)CCC(=O)O)cc1OC | -137 |  | 4.11 µM [falling, full curve]
40 | CCOc1ccccc1NS(=O)(=O)c1cc2c3c(c1)C(C)C(=O)N3CCC2 (configuration not stated) |  | 29.1 µM [falling, single point] | 
41 | C=C(C)Cn1c(Sc2nnc(C)s2)nc2c1c(=O)[nH]c(=O)n2C | -6.35 | 20.6 µM [falling, partial curve, poor fit] | 
42 | N#CCC(=O)Nc1ccc(C(=O)OCC(=O)C23CC4CC(CC(C4)C2)C3)cc1 | -36.2 | 3.26 µM [falling, full curve, poor fit] | 1.46 µM [falling, full curve]

Row | Structure (SMILES) | cell number change [%] | AC50 [1] | AC50 [2]
43 | COc1ccc(C2C(C#N)=C(N)OC3=C2C(=O)CCC3)cc1Cn1nc(C)c([N+](=O)[O-])c1C (configuration not stated) | 45 | 6.51 µM [rising, single point] | 5.17 µM [rising, full curve]
44 | CC1CCC(NC(=O)c2nn(C)c3c2CS(=O)(=O)c2ccccc2-3)CC1 (configuration not stated) | -20.5 |  | 
45 | O=C(Oc1ccc2c(=O)c(Oc3ccc4ccccc4c3)coc2c1)c1ccco1 | -14.6 | 4.61 µM [falling, single point] | 
46 | Cc1cccc(N=C2NC(=O)S/C2=C\c2ccco2)c1 | 0.427 | 0.366 µM [rising, full curve, poor fit] | 
47 | Cc1ccc(NC(=O)c2c(C)nc3sc(C(=O)NC4CCCC4)c(N)c3c2-c2ccco2)c(C)c1 | 26.3 | 29.1 µM [rising, single point] | 
48 | N=C1S/C(=C\c2ccco2)C(=O)N1c1nccs1 | -1.09 | 6.51 µM [rising, single point] | 
49 | Cc1ccc(NS(=O)(=O)c2ccc(C(=O)NCC(c3ccco3)N(C)C)cc2)cc1 (configuration not stated) | -4.69 | 6.51 µM [falling, full curve] | 
50 | CN(C)C(=O)/C(=C\c1ccc(-c2cccc([N+](=O)[O-])c2)o1)NC(=O)c1ccccc1 | 10.5 | 0.651 µM [falling, single point] | 
51 | CCCCCCn1c(CN2CCN(CCO)CC2)nc2c1c(=O)n(C)c(=O)n2C |  | 4.11 µM [falling, partial curve, poor fit] | 
52 | O=C(NCc1ccncc1)C1CCN(S(=O)(=O)Cc2ccccc2)CC1 | 24.6 | 0.651 µM [falling, single point] | 
53 | CCN1C(=O)c2ccc(C(=O)NCc3ccco3)cc2C1=O | -8.91 |  | 
54 | COc1ccc(CCC(=O)Nc2nnc(C(F)(F)F)s2)cc1 | 41.3 | 29.1 µM [rising, single point] | 7.31 µM [rising, partial curve, poor fit]
55 | COc1cc(/C(O)=C(\C#N)c2nc3ccccc3[nH]2)cc(OC)c1OC | -3.86 | 6.51 µM [rising, single point] | 
56 | COc1cc(-c2nc(-c3ccc4c(c3)-c3ccccc3S4(=O)=O)c(-c3ccccc3)[nH]2)cc(OC)c1OC | 10.3 | 0.58 µM [rising, single point] | 
57 | COc1ccc(NC(=O)CSC2=NCCN2)cc1 | 4.44 |  | 
58 | O=C(Nc1ccncc1)c1ccccc1-c1ccccc1 | -19.3 | 0.0731 µM [falling, full curve] | 
59 | COc1cc(C(=O)Nc2ccc(C(F)(F)F)cc2)ccc1OCC(=O)N1CCOCC1 | 63.5 |  | 18.4 µM [rising, partial curve]
60 | CCN(CC1COc2ccccc2O1)C(=O)CN1C(=O)NC(C)(c2ccc(C)cc2)C1=O (configuration not stated) | 3.07 | 29.1 µM [falling, single point] | 
61 | Cc1nc(N)nc(C)c1Cc1ccccc1 | 1.84 | 0.92 µM [falling, full curve, poor fit] | 
62 | COc1ccccc1NS(=O)(=O)/C=C/c1ccccc1 | 12.6 | 14.6 µM [rising, partial curve] | 
63 | O=C1NC(c2ccc(-c3ccccc3[N+](=O)[O-])o2)C(C(=O)c2ccccc2)C(O)(C(F)(F)F)N1 (configuration not stated) | -29.1 | 29.1 µM [falling, single point] | 

By substructure: the compounds so far containing a COOH group
Row | Structure (SMILES) | cell number change [%] | AC50 [1] | AC50 [2]
17 | Cc1ccc(NC(=O)CCC(C(=O)O)N2C(=O)c3ccccc3C2=O)cc1 (configuration not stated) | 8.92 |  | 
37 | COc1ccc(Cl)cc1NC(=S)N(Cc1ccccc1C)CC1CCC(C(=O)O)CC1 (configuration not stated) | -9.07 | 0.58 µM [rising, partial curve] | 
39 | COc1ccc(CCNS(=O)(=O)c2ccc3c(c2)CCN3C(=O)CCC(=O)O)cc1OC | -137 |  | 4.11 µM [falling, full curve]

Source: PubChem BioAssay AID2685 (National Center for Advancing Translational Sciences (NCATS), 2010)
